Experimental data as given in publication PMC5601049.
These are yes or no findings as the source states them, for the method shown.

Biological target: T1, LAX1 (LAX PANICLE1) (rice) (UniProt Q7XAQ6)
T1 sequence: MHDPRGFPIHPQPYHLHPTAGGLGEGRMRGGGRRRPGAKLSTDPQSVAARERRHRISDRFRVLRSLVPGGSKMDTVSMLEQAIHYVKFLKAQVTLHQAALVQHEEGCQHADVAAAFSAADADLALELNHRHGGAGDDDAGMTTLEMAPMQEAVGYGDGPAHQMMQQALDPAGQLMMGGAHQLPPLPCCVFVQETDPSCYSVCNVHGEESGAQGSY
Test: two-hybrid; yeast two-hybrid assay of OsRA2 and LAX1; told in one sentence, no figure, no constructs or conditions given

binding: no binding
Substance: OsRAMOSA2 (OsRA2) protein (rice (Oryza sativa))
